Assay results reported in PMC4514735, “The FKBP52 Cochaperone Acts in Synergy with β-Catenin to Potentiate Androgen Receptor Signaling” (PLoS ONE, 2015).

Amino acid sequences for entries named in this document (tags omitted). A change or cut given only in a name is not applied to a line headed by its entry.
UniProt P10275: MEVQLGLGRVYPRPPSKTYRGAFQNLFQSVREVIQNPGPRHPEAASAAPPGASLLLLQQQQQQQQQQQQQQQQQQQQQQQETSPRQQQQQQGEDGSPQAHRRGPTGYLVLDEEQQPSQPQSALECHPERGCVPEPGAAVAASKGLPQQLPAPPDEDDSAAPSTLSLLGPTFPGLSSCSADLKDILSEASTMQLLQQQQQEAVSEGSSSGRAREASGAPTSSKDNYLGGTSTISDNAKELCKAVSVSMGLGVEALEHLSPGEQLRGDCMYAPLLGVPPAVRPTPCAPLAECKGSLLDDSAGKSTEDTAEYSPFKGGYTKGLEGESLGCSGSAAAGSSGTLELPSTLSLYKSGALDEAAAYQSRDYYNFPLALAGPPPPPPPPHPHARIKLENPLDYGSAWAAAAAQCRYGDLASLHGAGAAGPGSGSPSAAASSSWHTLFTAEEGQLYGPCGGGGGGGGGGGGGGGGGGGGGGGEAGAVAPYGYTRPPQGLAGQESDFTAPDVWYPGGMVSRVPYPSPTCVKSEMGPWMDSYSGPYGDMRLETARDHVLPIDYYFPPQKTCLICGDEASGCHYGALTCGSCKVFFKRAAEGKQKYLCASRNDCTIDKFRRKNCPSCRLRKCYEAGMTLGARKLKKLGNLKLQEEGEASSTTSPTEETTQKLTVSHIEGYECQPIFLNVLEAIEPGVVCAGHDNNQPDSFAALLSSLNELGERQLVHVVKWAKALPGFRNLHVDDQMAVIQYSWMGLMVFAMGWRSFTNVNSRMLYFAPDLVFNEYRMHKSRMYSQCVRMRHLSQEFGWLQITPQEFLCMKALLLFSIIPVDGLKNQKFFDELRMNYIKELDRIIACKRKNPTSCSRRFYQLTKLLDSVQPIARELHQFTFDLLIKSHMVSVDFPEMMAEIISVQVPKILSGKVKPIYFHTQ
UniProt P35222: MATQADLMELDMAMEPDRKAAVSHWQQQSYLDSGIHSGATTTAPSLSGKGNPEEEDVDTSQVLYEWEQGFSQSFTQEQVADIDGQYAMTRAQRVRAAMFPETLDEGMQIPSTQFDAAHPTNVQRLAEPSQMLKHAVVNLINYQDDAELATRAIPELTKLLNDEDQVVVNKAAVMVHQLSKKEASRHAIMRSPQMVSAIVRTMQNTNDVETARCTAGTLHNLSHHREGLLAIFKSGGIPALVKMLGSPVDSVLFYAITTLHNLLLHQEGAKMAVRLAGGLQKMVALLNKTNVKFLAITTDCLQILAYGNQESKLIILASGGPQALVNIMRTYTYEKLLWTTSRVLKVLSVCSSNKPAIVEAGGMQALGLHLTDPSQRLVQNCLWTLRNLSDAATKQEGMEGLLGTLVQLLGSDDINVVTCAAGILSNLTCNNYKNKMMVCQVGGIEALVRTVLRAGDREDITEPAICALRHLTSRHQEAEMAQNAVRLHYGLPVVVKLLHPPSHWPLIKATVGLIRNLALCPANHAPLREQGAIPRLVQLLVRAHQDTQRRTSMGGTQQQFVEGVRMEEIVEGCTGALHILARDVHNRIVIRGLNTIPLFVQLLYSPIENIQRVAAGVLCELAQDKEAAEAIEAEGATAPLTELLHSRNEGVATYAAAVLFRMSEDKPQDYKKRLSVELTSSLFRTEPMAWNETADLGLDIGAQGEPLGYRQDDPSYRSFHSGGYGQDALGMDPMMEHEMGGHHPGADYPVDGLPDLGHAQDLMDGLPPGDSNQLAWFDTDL

Biological target: Gal4 DNA binding domain (DBD)-AR LBD chimeric protein (UniProt P10275)
Experiment: co-IP; 293T cells co-transfected with Gal4-AR LBD and β-catenin, lysates (RIPA buffer), anti-Gal4 antibody, blot for β-catenin; untreated, 10 nM DHT alone or 30 μM MJC13 alone

Substance: β-catenin (expression plasmid, 293T) (from UniProt P35222 1-781)
- binding: binds

No constants are given. Whether binding was seen depends on the method and setting. Binding seen in cells or lysates may run through a third protein. Binding can be weak; no strength is given.
